B1: U2AF1 (endogenous) (protein, UniProt Q01081 1-240)
chain: MAEYLASIFGTEKDKVNCSFYFKIGACRHGDRCSRLHNKPTFSQTIALLNIYRNPQNSSQSADGLRCAVSDVEMQEHYDEFFEEVFTEMEEKYGEVEEMNVCDNLGDHLVGNVYVKFRREEDAEKAVIDLNNRWFNGQPIHAELSPVTDFREACCRQYEMGECTRGGFCNFMHLKPISRELRRELYGRRRKKHRSRSRSRERRSRSRDRGRGGGGGGGGGGGGRERDRRRSRDRERSGRF
B2: THRAP3 (endogenous) (protein, UniProt Q9Y2W1 1-955)
chain: MSKTNKSKSGSRSSRSRSASRSRSRSFSKSRSRSRSLSRSRKRRLSSRSRSRSYSPAHNRERNHPRVYQNRDFRGHNRGYRRPYYFRGRNRGFYPWGQYNRGGYGNYRSNWQNYRQAYSPRRGRSRSRSPKRRSPSPRSRSHSRNSDKSSSDRSRRSSSSRSSSNHSRVESSKRKSAKEKKSSSKDSRPSQAAGDNQGDEAKEQTFSGGTSQDTKASESSKPWPDATYGTGSASRASAVSELSPRERSPALKSPLQSVVVRRRSPRPSPVPKPSPPLSSTSQMGSTLPSGAGYQSGTHQGQFDHGSGSLSPSKKSPVGKSPPSTGSTYGSSQKEESAASGGAAYTKRYLEEQKTENGKDKEQKQTNTDKEKIKEKGSFSDTGLGDGKMKSDSFAPKTDSEKPFRGSQSPKRYKLRDDFEKKMADFHKEEMDDQDKDKAKGRKESEFDDEPKFMSKVIGANKNQEEEKSGKWEGLVYAPPGKEKQRKTEELEEESFPERSKKEDRGKRSEGGHRGFVPEKNFRVTAYKAVQEKSSSPPPRKTSESRDKLGAKGDFPTGKSSFSITREAQVNVRMDSFDEDLARPSGLLAQERKLCRDLVHSNKKEQEFRSIFQHIQSAQSQRSPSELFAQHIVTIVHHVKEHHFGSSGMTLHERFTKYLKRGTEQEAAKNKKSPEIHRRIDISPSTFRKHGLAHDEMKSPREPGYKAEGKYKDDPVDLRLDIERRKKHKERDLKRGKSRESVDSRDSSHSRERSAEKTEKTHKGSKKQKKHRRARDRSRSSSSSSQSSHSYKAEEYTEETEEREESTTGFDKSRLGTKDFVGPSERGGGRARGTFQFRARGRGWGRGNYSGNNNNNSNNDFQKRNREEEWDPEYTPKSKKYYLHDDREGEGSDKWVSRGRGRGAFPRGRGRFMFRKSSTSPKWAHDKFSGEEGEIEDDESGTENREEKDNIQPTTE
B3: NONO (endogenous) (protein, UniProt Q15233 1-471)
chain: MQSNKTFNLEKQNHTPRKHHQHHHQQQHHQQQQQQPPPPPIPANGQQASSQNEGLTIDLKNFRKPGEKTFTQRSRLFVGNLPPDITEEEMRKLFEKYGKAGEVFIHKDKGFGFIRLETRTLAEIAKVELDNMPLRGKQLRVRFACHSASLTVRNLPQYVSNELLEEAFSVFGQVERAVVIVDDRGRPSGKGIVEFSGKPAARKALDRCSEGSFLLTTFPRPVTVEPMDQLDDEEGLPEKLVIKNQQFHKEREQPPRFAQPGSFEYEYAMRWKALIEMEKQQQDQVDRNIKEAREKLEMEMEAARHEHQVMLMRQDLMRRQEELRRMEELHNQEVQKRKQLELRQEEERRRREEEMRRQQEEMMRRQQEGFKGTFPDAREQEIRMGQMAMGGAMGINNRGAMPPAPVPAGTPAPPGPATMMPDGTLGLTPPTTERFGQAATMEGIGAIGGTPPAFNRAAPGAEFAPNKRRRY
B4: THOC1 (endogenous) (protein, UniProt Q96FV9 1-657)
chain: MSPTPPLFSLPEARTRFTKSTREALNNKNIKPLLSTFSQVPGSENEKKCTLDQAFRGILEEEIINHSSCENVLAIISLAIGGVTEGICTASTPFVLLGDVLDCLPLDQCDTIFTFVEKNVATWKSNTFYSAGKNYLLRMCNDLLRRLSKSQNTVFCGRIQLFLARLFPLSEKSGLNLQSQFNLENVTVFNTNEQESTLGQKHTEDREEGMDVEEGEMGDEEAPTTCSIPIDYNLYRKFWSLQDYFRNPVQCYEKISWKTFLKYSEEVLAVFKSYKLDDTQASRKKMEELKTGGEHVYFAKFLTSEKLMDLQLSDSNFRRHILLQYLILFQYLKGQVKFKSSNYVLTDEQSLWIEDTTKSVYQLLSENPPDGERFSKMVEHILNTEENWNSWKNEGCPSFVKERTSDTKPTRIIRKRTAPEDFLGKGPTKKILMGNEELTRLWNLCPDNMEACKSETREHMPTLEEFFEEAIEQADPENMVENEYKAVNNSNYGWRALRLLARRSPHFFQPTNQQFKSLPEYLENMVIKLAKELPPPSEEIKTGEDEDEEDNDALLKENESPDVRRDKPVTGEQIEVFANKLGEQWKILAPYLEMKDSEIRQIECDSEDMKMRAKQLLVAWQDQEGVHATPENLINALNKSGLSDLAESLTNDNETNS

Sequences of proteins named here, by UniProt entry; tags and fusion partners are left off.
UniProt Q96PV6: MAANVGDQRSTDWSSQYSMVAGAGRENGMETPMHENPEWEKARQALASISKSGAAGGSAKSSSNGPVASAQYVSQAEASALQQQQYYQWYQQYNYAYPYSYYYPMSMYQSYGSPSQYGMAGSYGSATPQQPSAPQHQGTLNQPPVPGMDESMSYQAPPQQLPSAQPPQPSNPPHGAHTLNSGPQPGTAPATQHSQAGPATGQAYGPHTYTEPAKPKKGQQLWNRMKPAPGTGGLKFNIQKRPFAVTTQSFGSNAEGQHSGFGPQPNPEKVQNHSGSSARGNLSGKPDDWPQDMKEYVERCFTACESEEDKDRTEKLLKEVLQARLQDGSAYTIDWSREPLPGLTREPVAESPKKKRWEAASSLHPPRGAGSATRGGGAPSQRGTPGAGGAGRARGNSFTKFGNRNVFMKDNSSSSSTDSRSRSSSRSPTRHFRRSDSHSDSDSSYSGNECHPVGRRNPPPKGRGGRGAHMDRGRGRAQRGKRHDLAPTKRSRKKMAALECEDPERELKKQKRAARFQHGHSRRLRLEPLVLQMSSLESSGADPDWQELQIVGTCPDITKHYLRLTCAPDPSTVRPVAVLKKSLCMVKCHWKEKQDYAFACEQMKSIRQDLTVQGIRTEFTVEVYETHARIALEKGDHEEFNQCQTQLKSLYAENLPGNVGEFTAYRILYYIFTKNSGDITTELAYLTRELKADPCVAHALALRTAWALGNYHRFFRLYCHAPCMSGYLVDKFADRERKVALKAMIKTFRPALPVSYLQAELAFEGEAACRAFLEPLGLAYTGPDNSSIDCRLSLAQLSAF
UniProt O75643: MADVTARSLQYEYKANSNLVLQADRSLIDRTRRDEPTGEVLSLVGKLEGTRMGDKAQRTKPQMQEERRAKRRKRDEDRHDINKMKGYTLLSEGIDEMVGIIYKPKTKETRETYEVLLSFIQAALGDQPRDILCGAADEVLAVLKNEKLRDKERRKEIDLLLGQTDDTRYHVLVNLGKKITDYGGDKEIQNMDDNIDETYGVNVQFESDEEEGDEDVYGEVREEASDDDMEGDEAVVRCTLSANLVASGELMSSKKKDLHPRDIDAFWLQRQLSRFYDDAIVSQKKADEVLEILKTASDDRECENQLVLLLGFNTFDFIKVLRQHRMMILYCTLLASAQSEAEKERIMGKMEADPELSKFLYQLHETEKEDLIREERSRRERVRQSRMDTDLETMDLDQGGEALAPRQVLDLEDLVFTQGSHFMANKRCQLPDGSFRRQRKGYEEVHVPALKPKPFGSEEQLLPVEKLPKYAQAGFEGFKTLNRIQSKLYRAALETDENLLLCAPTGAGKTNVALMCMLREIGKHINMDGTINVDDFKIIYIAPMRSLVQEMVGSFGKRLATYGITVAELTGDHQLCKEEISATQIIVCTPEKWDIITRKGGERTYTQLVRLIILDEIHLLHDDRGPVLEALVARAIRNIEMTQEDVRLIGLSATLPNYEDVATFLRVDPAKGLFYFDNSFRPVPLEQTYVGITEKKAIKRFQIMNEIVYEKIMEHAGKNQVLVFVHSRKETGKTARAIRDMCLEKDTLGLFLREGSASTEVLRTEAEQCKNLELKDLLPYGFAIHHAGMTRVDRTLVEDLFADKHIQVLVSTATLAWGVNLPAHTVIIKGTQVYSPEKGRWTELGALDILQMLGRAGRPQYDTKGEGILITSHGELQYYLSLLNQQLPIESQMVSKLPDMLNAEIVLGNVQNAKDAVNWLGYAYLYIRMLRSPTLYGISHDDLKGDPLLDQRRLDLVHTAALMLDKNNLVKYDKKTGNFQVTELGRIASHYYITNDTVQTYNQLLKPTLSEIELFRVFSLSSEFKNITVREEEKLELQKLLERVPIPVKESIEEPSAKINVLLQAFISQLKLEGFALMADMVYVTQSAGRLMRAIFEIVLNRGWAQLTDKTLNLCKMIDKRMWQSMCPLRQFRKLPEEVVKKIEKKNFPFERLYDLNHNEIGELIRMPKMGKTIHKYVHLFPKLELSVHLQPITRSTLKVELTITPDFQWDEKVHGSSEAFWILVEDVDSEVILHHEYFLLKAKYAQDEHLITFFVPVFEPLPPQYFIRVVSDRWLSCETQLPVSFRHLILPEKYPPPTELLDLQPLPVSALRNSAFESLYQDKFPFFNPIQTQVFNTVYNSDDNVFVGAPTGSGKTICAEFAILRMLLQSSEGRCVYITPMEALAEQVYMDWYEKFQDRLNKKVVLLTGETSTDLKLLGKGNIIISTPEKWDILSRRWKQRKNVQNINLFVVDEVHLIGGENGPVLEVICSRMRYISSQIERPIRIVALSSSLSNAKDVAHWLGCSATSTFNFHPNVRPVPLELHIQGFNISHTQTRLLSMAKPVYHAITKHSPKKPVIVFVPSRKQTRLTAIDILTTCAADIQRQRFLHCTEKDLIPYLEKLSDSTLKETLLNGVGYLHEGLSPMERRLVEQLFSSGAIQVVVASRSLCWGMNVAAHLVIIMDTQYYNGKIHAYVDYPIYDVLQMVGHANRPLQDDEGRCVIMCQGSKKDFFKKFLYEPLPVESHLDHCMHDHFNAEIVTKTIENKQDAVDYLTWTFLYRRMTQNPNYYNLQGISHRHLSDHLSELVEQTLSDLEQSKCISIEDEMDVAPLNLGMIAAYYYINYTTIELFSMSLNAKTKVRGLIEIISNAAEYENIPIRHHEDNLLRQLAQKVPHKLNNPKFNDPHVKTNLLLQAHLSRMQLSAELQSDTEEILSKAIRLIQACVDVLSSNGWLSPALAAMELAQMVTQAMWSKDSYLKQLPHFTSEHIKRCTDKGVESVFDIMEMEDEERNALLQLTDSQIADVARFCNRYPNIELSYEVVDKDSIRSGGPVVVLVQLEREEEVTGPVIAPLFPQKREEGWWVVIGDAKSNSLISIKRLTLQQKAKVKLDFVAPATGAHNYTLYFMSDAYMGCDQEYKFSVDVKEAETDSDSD

These are yes or no findings as the source states them, for the method shown. Binding seen in cells or lysates may run through a third protein. Here binding means that the protein was enriched with, or labelled near, the bait; the list need not be complete.

For the assay, the target named is ZZ-LENG8-3xFLAG (human) (UniProt Q96PV6). Kind of assay: affinity purification with mass spectrometry.
As to “SNRNP200 (endogenous) (from UniProt O75643 1-2136)”, the binding entry is on record as “binds”.
As to B1, the binding result is on record as “binds”.
B2: the binding entry was “binds”.
Consider B3, for which the binding entry is listed as “binds”.
Consider B4, for which the binding result was “binds”.

The record behind these values is doi:10.1101/2021.07.17.452750.
